These results are taken from US20040018561A1 (priority 2002, published 2004).

A short description of the data set: general procedure: Fmoc solid-phase peptide synthesis; Applied Biosystems Fmoc-Amide-Resin (Product number 401435); manufacturer's reagents; manual N-terminal capping with HATU/HOAT, BOP/HOBT or P. The conditions noted are these: for isolated mass / final HPLC purity / isolated yield: whole synthesis; for final HPLC purity: analytical reversed phase HPLC.

On to “N-[5-(2-oxohexahydro-1H-thieno[3,4-d]imidazol-4-yl)pentanoyl]-L-alpha-glutamyl-L-prolyl-L-leucylglycyl-L-leucyl-L-lysyl-L-alanyl-L-alpha-glutamyl-L-arginyl-L-alpha-glutamine”, for which the isolated mass is 0.22 g and the “final HPLC purity” value turned out to be 95%. Moreover, the isolated yield (overall) is 65%.
As to “1-[(7-methoxy-2-oxo-2H-chromen-4-yl)acetyl]-L-prolyl-L-leucylglycyl-O-benzyl-L-tyrosyl-3-[(2,4-dinitrophenyl)amino]-L-alanyl-L-alanyl-L-argininamide”, the isolated mass is 0.013 g and the “final HPLC purity” value stood at 98%. Moreover, the isolated yield (overall, scale 0.25 mmol) is on record as 5%.
For the substance “N-2-[(7-methoxy-2-oxo-2H-chromen-4-yl)acetyl]-L-arginyl-L-prolyl-L-leucylglycyl-6-(benzyloxy)-L-norleucyl-3-[(2,4-dinitrophenyl)amino]-L-alanyl-L-alanyl-L-arginyl-L-alpha-glutamyl-L-argininamide”, the isolated mass turned out to be 0.160 g and the “final HPLC purity” value is reported as 98%. The isolated yield (overall) worked out at 39%.
Take “N-2-[(7-methoxy-2-oxo-2H-chromen-4-yl)acetyl]-D-arginyl-L-prolyl-L-leucylglycyl-L-leucyl-3-[(2,4-dinitrophenyl)amino]-L-alanyl-L-alanyl-D-arginyl-D-alpha-glutamyl-D-argininamide”: the isolated mass was determined as 0.213 g and the “final HPLC purity” value worked out at 98%. The substance further gave an isolated yield (overall, scale 0.25 mmol) of 56%.
The matching figures for “1-[(7-methoxy-2-oxo-2H-chromen-4-yl)acetyl]-L-prolyl-L-leucylglycyl-3-(2-naphthyl)-L-alanyl-3-[(2,4-dinitrophenyl)amino]-L-alanyl-L-alanyl-L-argininamide”: 0.013 g, 98% and 5%.
In the case of “N-2-[(7-methoxy-2-oxo-2H-chromen-4-yl)acetyl]-D-lysyl-L-prolyl-L-leucylglycyl-L-leucyl-3-[(2,4-dinitrophenyl)amino]-L-alanyl-L-alanyl-D-arginyl-D-alpha-glutamyl-D-argininamide”, the isolated mass was 0.214 g and the “final HPLC purity” value was found to be 98%. The same substance had an isolated yield (overall, scale 0.25 mmol) of 53%.
As to “1-[(7-methoxy-2-oxo-2H-chromen-4-yl)acetyl]-L-prolyl-L-leucylglycyl-S-(3-phenylpropyl)-L-cysteinyl-3-[(2,4-dinitrophenyl)amino]-L-alanyl-L-alanyl-L-argininamide”, the isolated mass turned out to be 0.019 g and the “final HPLC purity” value amounted to 97%. Also, the isolated yield (overall, scale 0.1 mmol) is 14%.
Turning to “N-2-[(7-methoxy-2-oxo-2H-chromen-4-yl)acetyl]-D-arginyl-L-prolyl-L-leucyl-S-methyl-L-cysteinyl-L-leucyl-3-[(2,4-dinitrophenyl)amino]-L-alanyl-L-alanyl-D-arginyl-D-alpha-glutamyl-D-argininamide”, the isolated mass was determined as 0.158 g and the “final HPLC purity” value worked out at 93%. The isolated yield (overall) amounted to 40%.
On to “N-2-{5-[(3aS,4S,6aR)-2-oxohexahydro-1H-thieno[3,4-d]imidazol-4-yl]pentanoyl}-L-arginyl-L-prolyl-L-leucylglycyl-L-leucyl-L-lysyl-L-alanyl-L-arginyl-L-alpha-glutamyl-L-arginamide”, for which the isolated mass is reported as 0.25 g and the “final HPLC purity” value is recorded as 99%. The substance also showed an isolated yield (overall) of 70%.
On to “1-[(7-methoxy-2-oxo-2H-chromen-4-yl)acetyl]-L-prolyl-L-leucylglycyl-6-(benzyloxy)-L-norleucyl-3-[(2,4-dinitrophenyl)amino]-L-alanyl-L-alanyl-L-argininamide”, for which the isolated mass was 0.019 g and the “final HPLC purity” value was found to be 98%. Besides, the isolated yield (overall, scale 0.1 mmol) turned out to be 16%.
In the case of “N-2-[(7-methoxy-2-oxo-2H-chromen-4-yl)acetyl]-D-arginyl-L-prolyl-L-leucylglycyl-L-leucyl-3-[(2,4-dinitrophenyl)amino]-L-alanyl-L-alanyl-L-arginyl-D-alpha-glutamyl-D-argininamide”, the isolated mass is recorded as 0.270 g and the “final HPLC purity” value was determined as 98%. For the setting “overall, scale 0.25 mmol”, the isolated yield was 70%.
Consider “N-2-[(7-methoxy-2-oxo-2H-chromen-4-yl)acetyl]-L-arginyl-L-prolyl-L-leucylglycyl-L-leucyl-3-[(2,4-dinitrophenyl)amino]-L-alanyl-L-alanyl-L-arginyl-L-alpha-glutamyl-D-argininamide”, for which the isolated mass is recorded as 0.270 g and the “final HPLC purity” value amounted to 98%. The isolated yield (overall, scale 0.25 mmol) is 70%.
In the case of “N-2-[(7-methoxy-2-oxo-2H-chromen-4-yl)acetyl]-L-arginyl-L-prolyl-L-glutaminyl-L-alpha-glutamyl-6-(benzyloxy)-L-norleucyl-3-[(2,4-dinitrophenyl)amino]-L-alanyl-L-alanyl-L-arginyl-L-alpha-glutamyl-L-argininamide”, the isolated mass was 0.140 g and the “final HPLC purity” value was determined as 99.9%. Moreover, for the setting “overall”, the isolated yield was found to be 32%.
The matching figures for “N-2-[(7-methoxy-2-oxo-2H-chromen-4-yl)acetyl]-D-arginyl-L-prolyl-L-glutaminyl-L-alpha-glutamyl-6-(benzyloxy)-L-norleucyl-3-[(2,4-dinitrophenyl)amino]-L-alanyl-L-alanyl-D-arginyl-D-alpha-glutamyl-D-argininamide”: 0.121 g, 98% and 28%.
Regarding “N-2-[(7-methoxy-2-oxo-2H-chromen-4-yl)acetyl]-D-arginyl-L-prolyl-L-leucylglycyl-L-leucyl-3-[(2,4-dinitrophenyl)amino]-L-alanyl-beta-alanyl-D-arginyl-beta-alanyl-D-argininamide”, the isolated mass is 0.139 g and the “final HPLC purity” value is given as 98%. This substance showed an isolated yield (overall, scale 0.25 mmol) of 30%.
Take “N-2-[(7-methoxy-2-oxo-2H-chromen-4-yl)acetyl]-D-arginyl-L-prolyl-L-leucylglycyl-6-phenoxy-L-norleucyl-3-[(2,4-dinitrophenyl)amino]-L-alanyl-L-alanyl-D-arginyl-D-alpha-glutamyl-D-argininamide”: the isolated mass was 0.0.662 g and the “final HPLC purity” value worked out at 96%. Where the note is “overall, scale 1.0 mmol”, this substance gave an isolated yield of 41%.
On to “N-2-[(7-methoxy-2-oxo-2H-chromen-4-yl)acetyl]-D-arginyl-L-prolyl-L-leucylglycyl-6-(benzyloxy)-L-norleucyl-3-[(2,4-dinitrophenyl)amino]-L-alanyl-L-alanyl-D-arginyl-D-alpha-glutamyl-D-argininamide”, for which the isolated mass stood at 0.150 g and the “final HPLC purity” value amounted to 98%. Moreover, for the setting “overall”, the isolated yield stood at 37%.
Consider “N-2-[(7-methoxy-2-oxo-2H-chromen-4-yl)acetyl]-D-arginyl-L-prolyl-L-leucyl-L-alpha-glutamyl-6-(benzyloxy)-L-norleucyl-3-[(2,4-dinitrophenyl)amino]-L-alanyl-L-alanyl-D-arginyl-D-alpha-glutamyl-D-argininamide”, for which the isolated mass is given as 0.096 g and the “final HPLC purity” value is 98%. Further, the isolated yield (overall) was 22%.
On to “N-[5-(2-oxohexahydro-1H-thieno[3,4-d]imidazol-4-yl)pentanoyl]-L-alpha-glutamyl-L-prolyl-L-leucylglycyl-L-leucyl-N˜6˜-{4-{[3-carboxy-4-(6-hydroxy-3-oxo-3H-xanthen-9-yl)phenyl]amino}-6-[(2-hydroxyethyl)thiol]-1,3,5-triazin-2-yl}-L-lysyl-L-al”, for which the step yield (late stage modification step, overall) is 74%.
